According to publication PMC4351826:
These are yes or no findings as the source states them, for the method shown. In cells and extracts the contact can be indirect. Tags and fused reporters may be left off the sequences shown.

Biological target: T1, DRB2-Cmyc (Arabidopsis thaliana) (UniProt Q9SKN2)
T1 sequence: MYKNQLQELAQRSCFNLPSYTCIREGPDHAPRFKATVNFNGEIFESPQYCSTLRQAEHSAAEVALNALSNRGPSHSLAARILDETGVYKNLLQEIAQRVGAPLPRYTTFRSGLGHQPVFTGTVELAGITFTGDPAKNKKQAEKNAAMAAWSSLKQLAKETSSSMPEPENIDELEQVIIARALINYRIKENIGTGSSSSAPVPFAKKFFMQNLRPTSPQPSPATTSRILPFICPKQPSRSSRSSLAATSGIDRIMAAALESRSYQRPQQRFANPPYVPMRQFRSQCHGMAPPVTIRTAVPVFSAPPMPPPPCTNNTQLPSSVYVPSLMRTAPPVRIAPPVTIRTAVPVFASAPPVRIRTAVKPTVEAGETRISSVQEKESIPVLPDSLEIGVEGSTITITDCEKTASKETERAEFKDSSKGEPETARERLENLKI
Experiment: co-IP; Cmyc and Flag IPs from first generation plants of DRB2-Cmyc crossed with NRPD1-Flag or NRPE1-Flag; western blot

B1: NRPD1-Flag (protein, UniProt Q9LQ02 1-1453)
chain: MEDDCEELQVPVGTLTSIGFSISNNNDRDKMSVLEVEAPNQVTDSRLGLPNPDSVCRTCGSKDRKVCEGHFGVINFAYSIINPYFLKEVAALLNKICPGCKYIRKKQFQITEDQPERCRYCTLNTGYPLMKFRVTTKEVFRRSGIVVEVNEESLMKLKKRGVLTLPPDYWSFLPQDSNIDESCLKPTRRIITHAQVYALLLGIDQRLIKKDIPMFNSLGLTSFPVTPNGYRVTEIVHQFNGARLIFDERTRIYKKLVGFEGNTLELSSRVMECMQYSRLFSETVSSSKDSANPYQKKSDTPKLCGLRFMKDVLLGKRSDHTFRTVVVGDPSLKLNEIGIPESIAKRLQVSEHLNQCNKERLVTSFVPTLLDNKEMHVRRGDRLVAIQVNDLQTGDKIFRSLMDGDTVLMNRPPSIHQHSLIAMTVRILPTTSVVSLNPICCLPFRGDFDGDCLHGYVPQSIQAKVELDELVALDKQLINRQNGRNLLSLGQDSLTAAYLVNVEKNCYLNRAQMQQLQMYCPFQLPPPAIIKASPSSTEPQWTGMQLFGMLFPPGFDYTYPLNNVVVSNGELLSFSEGSAWLRDGEGNFIERLLKHDKGKVLDIIYSAQEMLSQWLLMRGLSVSLADLYLSSDLQSRKNLTEEISYGLREAEQVCNKQQLMVESWRDFLAVNGEDKEEDSVSDLARFCYERQKSATLSELAVSAFKDAYRDVQALAYRYGDQSNSFLIMSKAGSKGNIGKLVQHSMCIGLQNSAVSLSFGFPRELTCAAWNDPNSPLRGAKGKDSTTTESYVPYGVIENSFLTGLNPLESFVHSVTSRDSSFSGNADLPGTLSRRLMFFMRDIYAAYDGTVRNSFGNQLVQFTYETDGPVEDITGEALGSLSACALSEAAYSALDQPISLLETSPLLNLKNVLECGSKKGQREQTMSLYLSEYLSKKKHGFEYGSLEIKNHLEKLSFSEIVSTSMIIFSPSSNTKVPLSPWVCHFHISEKVLKRKQLSAESVVSSLNEQYKSRNRELKLDIVDLDIQNTNHCSSDDQAMKDDNVCITVTVVEASKHSVLELDAIRLVLIPFLLDSPVKGDQGIKKVNILWTDRPKAPKRNGNHLAGELYLKVTMYGDRGKRNCWTALLETCLPIMDMIDWGRSHPDNIRQCCSVYGIDAGRSIFVANLESAVSDTGKEILREHLLLVADSLSVTGEFVALNAKGWSKQRQVESTPAPFTQACFSSPSQCFLKAAKEGVRDDLQGSIDALAWGKVPGFGTGDQFEIIISPKVHGFTTPVDVYDLLSSTKTMRRTNSAPKSDKATVQPFGLLHSAFLKDIKVLDGKGIPMSLLRTIFTWKNIELLSQSLKRILHSYEINELLNERDEGLVKMVLQLHPNSVEKIGPGVKGIRVAKSKHGDSCCFEVVRIDGTFEDFSYHKCVLGATKIIAPKKMNFYKSKYLKNGTLESGGFSENP
For B1, which binding is on record?
The binding was “no binding”.
